From the supplement of paper PMC10849652
Some of the results follow.

Protein sequences, listed by entry. Tags and fused reporters are not part of them. Lines headed by an entry give the natural chain unless they say otherwise; changes in a name come on top.
UniProt Q8N4C8: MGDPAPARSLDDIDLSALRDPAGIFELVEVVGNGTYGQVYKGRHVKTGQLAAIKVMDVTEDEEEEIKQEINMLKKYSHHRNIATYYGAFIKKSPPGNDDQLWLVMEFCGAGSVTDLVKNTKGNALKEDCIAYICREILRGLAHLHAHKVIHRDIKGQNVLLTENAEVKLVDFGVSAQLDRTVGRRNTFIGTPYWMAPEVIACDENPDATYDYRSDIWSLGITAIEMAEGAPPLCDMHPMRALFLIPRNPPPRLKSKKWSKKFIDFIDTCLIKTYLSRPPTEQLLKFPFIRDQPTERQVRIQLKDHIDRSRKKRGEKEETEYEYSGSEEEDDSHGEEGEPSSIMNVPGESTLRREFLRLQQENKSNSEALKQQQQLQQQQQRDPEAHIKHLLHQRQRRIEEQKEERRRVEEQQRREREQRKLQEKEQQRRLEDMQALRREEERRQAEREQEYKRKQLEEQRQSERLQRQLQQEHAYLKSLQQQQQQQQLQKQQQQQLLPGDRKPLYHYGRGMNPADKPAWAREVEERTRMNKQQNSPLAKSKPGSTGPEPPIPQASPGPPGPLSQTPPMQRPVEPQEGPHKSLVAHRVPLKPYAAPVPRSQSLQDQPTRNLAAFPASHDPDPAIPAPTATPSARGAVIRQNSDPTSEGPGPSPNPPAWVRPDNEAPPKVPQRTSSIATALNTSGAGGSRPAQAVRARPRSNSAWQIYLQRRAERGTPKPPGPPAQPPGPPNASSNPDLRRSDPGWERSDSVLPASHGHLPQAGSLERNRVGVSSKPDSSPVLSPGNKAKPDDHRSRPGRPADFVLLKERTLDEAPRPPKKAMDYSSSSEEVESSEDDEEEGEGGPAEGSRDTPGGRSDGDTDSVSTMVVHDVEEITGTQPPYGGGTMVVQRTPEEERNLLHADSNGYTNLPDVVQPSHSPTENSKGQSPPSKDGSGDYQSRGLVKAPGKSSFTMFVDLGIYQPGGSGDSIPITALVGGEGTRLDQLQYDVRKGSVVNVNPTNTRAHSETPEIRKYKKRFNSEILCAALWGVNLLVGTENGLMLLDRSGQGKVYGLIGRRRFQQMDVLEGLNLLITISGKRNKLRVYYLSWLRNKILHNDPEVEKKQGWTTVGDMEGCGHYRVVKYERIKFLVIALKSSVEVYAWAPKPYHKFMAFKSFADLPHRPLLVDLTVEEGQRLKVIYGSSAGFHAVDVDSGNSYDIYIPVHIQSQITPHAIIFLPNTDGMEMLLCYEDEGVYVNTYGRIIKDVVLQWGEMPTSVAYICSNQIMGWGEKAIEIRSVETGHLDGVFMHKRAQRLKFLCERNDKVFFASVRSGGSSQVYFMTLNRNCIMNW
UniProt Q13724: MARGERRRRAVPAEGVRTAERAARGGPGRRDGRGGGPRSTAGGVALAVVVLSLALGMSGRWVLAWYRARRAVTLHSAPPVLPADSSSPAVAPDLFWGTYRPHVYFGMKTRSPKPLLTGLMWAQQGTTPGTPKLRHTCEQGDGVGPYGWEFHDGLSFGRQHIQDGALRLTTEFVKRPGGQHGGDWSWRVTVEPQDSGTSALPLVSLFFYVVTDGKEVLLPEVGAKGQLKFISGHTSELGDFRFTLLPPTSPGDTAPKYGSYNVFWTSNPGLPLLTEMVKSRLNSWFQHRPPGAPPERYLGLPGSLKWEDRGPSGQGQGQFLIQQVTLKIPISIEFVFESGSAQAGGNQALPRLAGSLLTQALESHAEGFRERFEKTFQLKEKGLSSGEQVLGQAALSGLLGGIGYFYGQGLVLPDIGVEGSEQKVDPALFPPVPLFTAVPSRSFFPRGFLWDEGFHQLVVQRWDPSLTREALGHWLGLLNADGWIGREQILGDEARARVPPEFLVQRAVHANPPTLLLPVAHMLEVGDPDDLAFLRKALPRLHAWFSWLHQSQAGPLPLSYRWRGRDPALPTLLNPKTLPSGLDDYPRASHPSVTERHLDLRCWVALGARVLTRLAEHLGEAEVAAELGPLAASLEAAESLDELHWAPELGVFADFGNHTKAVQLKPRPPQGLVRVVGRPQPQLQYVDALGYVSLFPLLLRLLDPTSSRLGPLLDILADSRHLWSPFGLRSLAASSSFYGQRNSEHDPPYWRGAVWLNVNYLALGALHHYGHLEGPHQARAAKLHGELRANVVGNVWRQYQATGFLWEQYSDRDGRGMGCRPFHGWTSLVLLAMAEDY
UniProt Q5TGZ0: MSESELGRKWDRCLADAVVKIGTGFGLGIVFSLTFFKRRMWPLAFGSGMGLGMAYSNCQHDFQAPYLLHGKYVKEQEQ
UniProt Q9NZB8: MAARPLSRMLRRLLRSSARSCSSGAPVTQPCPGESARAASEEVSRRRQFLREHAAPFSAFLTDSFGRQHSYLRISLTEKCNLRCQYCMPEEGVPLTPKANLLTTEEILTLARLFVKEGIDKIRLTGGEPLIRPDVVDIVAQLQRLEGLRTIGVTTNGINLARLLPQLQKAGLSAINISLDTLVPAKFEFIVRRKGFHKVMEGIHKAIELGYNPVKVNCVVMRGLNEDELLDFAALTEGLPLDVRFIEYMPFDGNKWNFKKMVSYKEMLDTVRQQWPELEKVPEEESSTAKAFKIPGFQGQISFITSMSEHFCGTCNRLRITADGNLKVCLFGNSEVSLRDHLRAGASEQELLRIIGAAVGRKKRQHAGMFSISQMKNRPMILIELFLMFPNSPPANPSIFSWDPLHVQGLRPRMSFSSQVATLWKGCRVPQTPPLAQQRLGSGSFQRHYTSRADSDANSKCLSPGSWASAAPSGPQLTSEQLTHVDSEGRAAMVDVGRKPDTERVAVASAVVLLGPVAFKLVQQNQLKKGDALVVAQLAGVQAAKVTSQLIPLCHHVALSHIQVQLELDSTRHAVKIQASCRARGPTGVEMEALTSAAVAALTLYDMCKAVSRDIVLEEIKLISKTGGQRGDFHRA
UniProt Q9UBU8, whole entry, looked up: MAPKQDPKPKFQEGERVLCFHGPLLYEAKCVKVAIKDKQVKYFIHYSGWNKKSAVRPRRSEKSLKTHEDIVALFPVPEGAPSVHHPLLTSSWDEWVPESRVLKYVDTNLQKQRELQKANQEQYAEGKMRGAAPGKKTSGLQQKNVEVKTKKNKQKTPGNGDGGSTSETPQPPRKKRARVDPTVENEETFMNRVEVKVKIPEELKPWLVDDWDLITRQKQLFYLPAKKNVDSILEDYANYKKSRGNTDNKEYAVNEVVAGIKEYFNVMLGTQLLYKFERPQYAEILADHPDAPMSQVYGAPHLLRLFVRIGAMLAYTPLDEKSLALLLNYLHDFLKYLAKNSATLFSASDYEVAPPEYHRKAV
UniProt O95396: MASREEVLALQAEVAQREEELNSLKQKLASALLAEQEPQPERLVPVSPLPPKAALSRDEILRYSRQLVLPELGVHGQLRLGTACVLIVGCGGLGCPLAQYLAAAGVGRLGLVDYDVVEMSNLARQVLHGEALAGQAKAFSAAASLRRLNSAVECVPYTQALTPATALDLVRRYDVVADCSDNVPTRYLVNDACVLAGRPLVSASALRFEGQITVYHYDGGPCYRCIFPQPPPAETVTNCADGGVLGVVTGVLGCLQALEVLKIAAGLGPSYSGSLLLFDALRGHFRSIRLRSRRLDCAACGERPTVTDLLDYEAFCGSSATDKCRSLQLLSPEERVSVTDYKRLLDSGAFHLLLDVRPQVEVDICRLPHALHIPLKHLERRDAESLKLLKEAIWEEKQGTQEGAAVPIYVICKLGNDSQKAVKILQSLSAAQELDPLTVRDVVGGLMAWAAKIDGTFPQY
UniProt Q7RTP6, whole entry, looked up: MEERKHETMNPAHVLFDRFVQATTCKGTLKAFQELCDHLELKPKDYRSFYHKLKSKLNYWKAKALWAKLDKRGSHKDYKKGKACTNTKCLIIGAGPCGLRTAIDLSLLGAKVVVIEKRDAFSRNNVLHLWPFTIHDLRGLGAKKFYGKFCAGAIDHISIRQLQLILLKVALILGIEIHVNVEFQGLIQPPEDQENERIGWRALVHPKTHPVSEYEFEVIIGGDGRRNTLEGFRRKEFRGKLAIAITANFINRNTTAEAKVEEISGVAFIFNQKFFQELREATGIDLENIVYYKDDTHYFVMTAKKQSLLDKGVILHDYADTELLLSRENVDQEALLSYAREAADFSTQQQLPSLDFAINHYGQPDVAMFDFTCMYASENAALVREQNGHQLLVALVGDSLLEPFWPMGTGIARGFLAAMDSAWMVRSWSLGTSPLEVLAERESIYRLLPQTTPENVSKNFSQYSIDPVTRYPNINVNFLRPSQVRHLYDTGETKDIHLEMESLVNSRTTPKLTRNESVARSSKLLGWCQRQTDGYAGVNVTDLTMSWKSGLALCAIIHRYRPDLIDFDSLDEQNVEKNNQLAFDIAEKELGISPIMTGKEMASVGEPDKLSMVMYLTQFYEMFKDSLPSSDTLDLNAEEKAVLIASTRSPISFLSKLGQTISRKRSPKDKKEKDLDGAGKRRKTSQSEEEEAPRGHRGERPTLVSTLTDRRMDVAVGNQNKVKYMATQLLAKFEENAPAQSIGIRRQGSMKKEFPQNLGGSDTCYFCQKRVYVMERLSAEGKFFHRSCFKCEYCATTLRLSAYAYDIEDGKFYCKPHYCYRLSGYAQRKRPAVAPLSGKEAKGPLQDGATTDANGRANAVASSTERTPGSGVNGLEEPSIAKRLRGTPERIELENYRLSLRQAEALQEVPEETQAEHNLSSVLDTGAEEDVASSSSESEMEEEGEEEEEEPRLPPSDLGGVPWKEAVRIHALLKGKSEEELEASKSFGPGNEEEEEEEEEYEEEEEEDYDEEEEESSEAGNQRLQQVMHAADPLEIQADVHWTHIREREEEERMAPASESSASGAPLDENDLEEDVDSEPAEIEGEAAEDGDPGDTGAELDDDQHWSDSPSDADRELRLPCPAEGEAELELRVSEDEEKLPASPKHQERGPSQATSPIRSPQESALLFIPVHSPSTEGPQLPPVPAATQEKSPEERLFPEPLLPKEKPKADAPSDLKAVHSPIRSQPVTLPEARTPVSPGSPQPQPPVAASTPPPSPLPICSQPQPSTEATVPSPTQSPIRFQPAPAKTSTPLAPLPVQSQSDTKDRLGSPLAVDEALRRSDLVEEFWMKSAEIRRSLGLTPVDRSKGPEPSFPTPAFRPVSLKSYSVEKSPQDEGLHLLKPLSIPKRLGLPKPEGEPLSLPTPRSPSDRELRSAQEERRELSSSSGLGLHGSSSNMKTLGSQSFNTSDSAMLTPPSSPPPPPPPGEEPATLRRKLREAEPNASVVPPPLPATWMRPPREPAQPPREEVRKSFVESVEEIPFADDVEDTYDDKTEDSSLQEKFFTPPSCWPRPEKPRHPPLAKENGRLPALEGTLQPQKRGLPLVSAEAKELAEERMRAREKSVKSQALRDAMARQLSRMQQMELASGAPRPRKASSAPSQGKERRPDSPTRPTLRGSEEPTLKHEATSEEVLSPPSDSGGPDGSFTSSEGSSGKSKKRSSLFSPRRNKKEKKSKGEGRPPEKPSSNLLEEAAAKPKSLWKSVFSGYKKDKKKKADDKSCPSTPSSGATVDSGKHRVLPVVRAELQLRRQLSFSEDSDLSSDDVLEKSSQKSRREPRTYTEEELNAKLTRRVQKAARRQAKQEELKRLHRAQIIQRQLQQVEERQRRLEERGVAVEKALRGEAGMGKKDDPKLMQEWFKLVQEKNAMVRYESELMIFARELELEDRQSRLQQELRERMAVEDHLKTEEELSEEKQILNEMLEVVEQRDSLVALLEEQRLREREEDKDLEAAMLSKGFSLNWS
UniProt Q96BX8: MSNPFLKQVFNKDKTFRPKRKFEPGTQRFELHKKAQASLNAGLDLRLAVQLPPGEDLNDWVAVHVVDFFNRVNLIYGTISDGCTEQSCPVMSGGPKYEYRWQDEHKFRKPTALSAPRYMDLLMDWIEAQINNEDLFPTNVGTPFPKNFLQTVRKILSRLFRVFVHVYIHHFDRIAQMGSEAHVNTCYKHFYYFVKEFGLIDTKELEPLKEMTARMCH
UniProt Q9H081: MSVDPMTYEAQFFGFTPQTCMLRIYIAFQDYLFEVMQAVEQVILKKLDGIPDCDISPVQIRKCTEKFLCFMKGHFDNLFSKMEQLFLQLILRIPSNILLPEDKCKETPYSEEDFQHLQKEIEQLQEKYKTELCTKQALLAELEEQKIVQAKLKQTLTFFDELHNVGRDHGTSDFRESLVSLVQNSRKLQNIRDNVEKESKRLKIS
UniProt Q8TAP9: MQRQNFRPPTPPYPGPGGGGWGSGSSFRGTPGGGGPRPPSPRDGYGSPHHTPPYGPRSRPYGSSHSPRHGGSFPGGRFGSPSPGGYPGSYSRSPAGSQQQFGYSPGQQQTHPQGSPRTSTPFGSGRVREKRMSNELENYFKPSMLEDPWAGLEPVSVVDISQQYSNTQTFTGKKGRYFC
UniProt Q96EY8: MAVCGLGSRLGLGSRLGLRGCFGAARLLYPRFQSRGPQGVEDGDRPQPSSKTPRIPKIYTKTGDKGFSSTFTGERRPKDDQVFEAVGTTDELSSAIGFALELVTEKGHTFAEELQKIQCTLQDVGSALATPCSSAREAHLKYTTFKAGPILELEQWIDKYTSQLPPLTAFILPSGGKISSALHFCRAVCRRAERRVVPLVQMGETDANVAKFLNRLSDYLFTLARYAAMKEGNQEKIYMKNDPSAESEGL

Compound: C1=CC(=CC=C1C2=NC3=C(N2)C=C(C=C3)C(=O)N)OC4=CC=C(C=C4)Cl
Test: log2 fold change, soluble protein after heating vs DMSO (PISA); higher = thermal stabilisation; K562 lysate, 10 uM; active = over 0.2 and 3.5 SD of the protein, either way, in both replicates (recomputed)
Outline: (§1)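 K562 pellets were dounce-homogenised in PBS pH 7.4 containing 1 mM MgCl2, and the crude extract, at 1 mg/mL protein, was exposed to 10 μM compound for 30 min. Aliquots were heated for 3 min across 48°C-58°C, pooled, brought to 0.5% NP-40 at 4°C and spun at 21,000xg for 90 min, with the supernatant taken as soluble protein. TMTpro 16plex LC-MS/MS with equalised channel sums quantified that protein. Values are log-two fold changes in thermal stability relative to solvent controls, taken from duplicates.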

log2 fold change, inactive:
MOB1B isoform 2 (UniProt Q7L9L4) 0.032
MINK1 (UniProt Q8N4C8) -0.059
MKRN2 (UniProt Q9H000) 0.041
MIF (UniProt P14174) -0.021
MOGS (UniProt Q13724) -0.068
MICOS10 (UniProt Q5TGZ0) 0.001
MICB, A0A140T979 -0.029
MMTAG2 (UniProt Q9BU76) 0.054
MPST isoform 2 (UniProt P25325) 0.001
MRPL14 (UniProt Q6P1L8) -0.036
MRPL23 (UniProt Q16540) 0.036
MGME1 (UniProt Q9BQP7) 0.033
MRM3 (UniProt Q9HC36) 0
MLXIP (UniProt Q9HAP2) 0.027
MPP6 (UniProt Q9NZW5) -0.031
MMUT (UniProt P22033) -0.003
MKLN1 (UniProt Q9UL63) 0.022
MPHOSPH10 (UniProt O00566) -0.048
MOCS1 isoform 8 (UniProt Q9NZB8) 0.074
MOB2 isoform 3 (UniProt Q70IA6) 0.041
MORF4L1 isoform 2 (UniProt Q9UBU8) 0.046
MINPP1 (UniProt Q9UNW1) 0.021
MNX1 (UniProt P50219) 0.092
MLLT1 (UniProt Q03111) -0.025
MRPL19 (UniProt P49406) -0.041
MPRIP isoform 2 (UniProt Q6WCQ1) -0.005
MOCS3 (UniProt O95396) -0.033
MICAL3 (UniProt Q7RTP6) 0.027
MOB3A (UniProt Q96BX8) -0.06
MMADHC (UniProt Q9H3L0) 0.012
MPZL1 (UniProt O95297) -0.036
MIS12 (UniProt Q9H081) 0.006
MPLKIP (UniProt Q8TAP9) -0.049
MKRN1 (UniProt Q9UHC7) -0.021
MMAB (UniProt Q96EY8) 0.007
MON1B (UniProt Q7L1V2) -0.014
MGST1 (UniProt P10620) 0.016
MLF2 (UniProt Q15773) 0.056

Compound: C1=CC2=C(C=CC(=C2)/C=C\3/C(=O)NC(=NCC4=CC=CS4)S3)N=C1
Test: as above
Outline: as §1

log2 fold change, inactive:
MOB1B isoform 2 (UniProt Q7L9L4) -0.018
MINK1 (UniProt Q8N4C8) 0.135
MKRN2 (UniProt Q9H000) -0.033
MIF (UniProt P14174) -0.045
MOGS (UniProt Q13724) 0.009
MICOS10 (UniProt Q5TGZ0) -0.084
MICB, A0A140T979 -0.07
MMTAG2 (UniProt Q9BU76) -0.018
MPST isoform 2 (UniProt P25325) 0.027
MRPL14 (UniProt Q6P1L8) 0.001
MRPL23 (UniProt Q16540) 0.037
MGME1 (UniProt Q9BQP7) 0.017
MRM3 (UniProt Q9HC36) 0.006
MLXIP (UniProt Q9HAP2) 0.01
MPP6 (UniProt Q9NZW5) -0.021
MMUT (UniProt P22033) 0.038
MKLN1 (UniProt Q9UL63) 0.011
MPHOSPH10 (UniProt O00566) 0.009
MOCS1 isoform 8 (UniProt Q9NZB8) 0.058
MOB2 isoform 3 (UniProt Q70IA6) -0.082
MORF4L1 isoform 2 (UniProt Q9UBU8) -0.027
MINPP1 (UniProt Q9UNW1) 0.027
MNX1 (UniProt P50219) -0.045
MLLT1 (UniProt Q03111) 0.059
MRPL19 (UniProt P49406) -0.003
MPRIP isoform 2 (UniProt Q6WCQ1) 0.017
MOCS3 (UniProt O95396) -0.135
MICAL3 (UniProt Q7RTP6) -0.025
MOB3A (UniProt Q96BX8) 0.061
MMADHC (UniProt Q9H3L0) 0.012
MPZL1 (UniProt O95297) 0.003
MIS12 (UniProt Q9H081) -0.001
MPLKIP (UniProt Q8TAP9) 0.049
MKRN1 (UniProt Q9UHC7) -0.079
MMAB (UniProt Q96EY8) 0.025
MON1B (UniProt Q7L1V2) -0.01
MGST1 (UniProt P10620) -0.051
MLF2 (UniProt Q15773) 0.036
